No constants are given. Whether binding was seen depends on the method and setting. In cells and extracts the contact can be indirect. Some entries that bind do so weakly or less than the wild type.
Tests used:
[1] = biological target: dopamine receptor type 2 (D2DR) (human (endogenous in SHSY5Y)) (UniProt P14416); test: co-IP; lysates of SHSY5Y cells transfected with CADPS2-V5 constructs; immunoprecipitation with rabbit anti-D2DR antibody on Protein G-Sepharose at 4°C, western blot with mouse anti-V5; lysis in 50 mM HEPES, 1 mM EDTA, 10% glycerol, 1% Triton X-100, 150 mM NaCl
[2] = biological target: Ca2+-dependent activator protein for secretion 2 (CADPS2), wild type, C-terminal V5 tag (human) (UniProt Q86UW7); test: co-IP; lysates of SHSY5Y cells transfected with CADPS2-V5 constructs; immunoprecipitation with mouse anti-V5 antibody on Protein G-Sepharose at 4°C, western blot with rabbit anti-D2DR; lysis in 50 mM HEPES, 1 mM EDTA, 10% glycerol, 1% Triton X-100, 150 mM NaCl

Amino acid sequences for entries named in this document (tags omitted). A change or cut given only in a name is not applied to a line headed by its entry.
UniProt P14416: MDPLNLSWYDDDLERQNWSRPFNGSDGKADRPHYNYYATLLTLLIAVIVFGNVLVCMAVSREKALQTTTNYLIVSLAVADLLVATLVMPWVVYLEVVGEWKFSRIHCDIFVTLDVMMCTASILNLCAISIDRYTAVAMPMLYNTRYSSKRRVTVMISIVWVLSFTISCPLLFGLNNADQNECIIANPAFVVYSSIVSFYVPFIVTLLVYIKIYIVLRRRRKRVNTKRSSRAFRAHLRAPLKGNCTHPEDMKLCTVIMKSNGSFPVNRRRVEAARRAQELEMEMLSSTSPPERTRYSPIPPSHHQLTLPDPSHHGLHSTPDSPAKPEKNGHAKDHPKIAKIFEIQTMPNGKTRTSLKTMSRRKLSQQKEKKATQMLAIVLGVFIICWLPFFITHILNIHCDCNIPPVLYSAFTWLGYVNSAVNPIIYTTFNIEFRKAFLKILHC
UniProt Q86UW7: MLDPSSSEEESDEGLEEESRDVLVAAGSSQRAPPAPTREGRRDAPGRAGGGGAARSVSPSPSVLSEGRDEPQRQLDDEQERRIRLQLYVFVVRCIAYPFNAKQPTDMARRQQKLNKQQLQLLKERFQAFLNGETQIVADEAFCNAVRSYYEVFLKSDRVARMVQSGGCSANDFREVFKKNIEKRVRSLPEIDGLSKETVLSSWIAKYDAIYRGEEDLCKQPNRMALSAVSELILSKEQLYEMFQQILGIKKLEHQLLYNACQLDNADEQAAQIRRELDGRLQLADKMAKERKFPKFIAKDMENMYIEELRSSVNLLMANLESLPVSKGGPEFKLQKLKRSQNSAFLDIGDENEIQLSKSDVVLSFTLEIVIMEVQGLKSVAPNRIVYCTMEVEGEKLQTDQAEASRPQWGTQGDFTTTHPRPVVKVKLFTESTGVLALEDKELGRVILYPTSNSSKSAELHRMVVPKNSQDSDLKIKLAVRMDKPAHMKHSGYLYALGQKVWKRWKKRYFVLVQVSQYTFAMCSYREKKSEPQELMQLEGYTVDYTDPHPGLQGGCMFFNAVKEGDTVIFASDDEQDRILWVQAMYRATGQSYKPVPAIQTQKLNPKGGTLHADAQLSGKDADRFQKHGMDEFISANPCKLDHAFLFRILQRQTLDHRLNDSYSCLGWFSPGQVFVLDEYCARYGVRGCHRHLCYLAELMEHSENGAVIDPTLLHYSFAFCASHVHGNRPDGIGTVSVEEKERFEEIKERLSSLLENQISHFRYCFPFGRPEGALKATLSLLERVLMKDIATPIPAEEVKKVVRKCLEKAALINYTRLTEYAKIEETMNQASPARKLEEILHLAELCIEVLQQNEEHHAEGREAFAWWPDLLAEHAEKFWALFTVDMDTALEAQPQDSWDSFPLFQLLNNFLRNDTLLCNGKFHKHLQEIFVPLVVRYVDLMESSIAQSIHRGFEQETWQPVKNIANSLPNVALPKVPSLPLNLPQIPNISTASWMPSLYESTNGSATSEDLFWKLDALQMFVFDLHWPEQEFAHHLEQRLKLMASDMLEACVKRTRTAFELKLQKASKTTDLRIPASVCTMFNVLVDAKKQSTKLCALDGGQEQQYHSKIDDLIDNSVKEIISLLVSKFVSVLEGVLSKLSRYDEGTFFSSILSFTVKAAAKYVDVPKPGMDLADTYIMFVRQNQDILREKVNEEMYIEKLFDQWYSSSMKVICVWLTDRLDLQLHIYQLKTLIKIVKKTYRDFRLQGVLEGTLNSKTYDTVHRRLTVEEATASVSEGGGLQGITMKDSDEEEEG

Row | binding [1] | binding [2] | Substance
1 | binds |  | Ca2+-dependent activator protein for secretion 2 (CADPS2), wild type, C-terminal V5 tag (from UniProt Q86UW7-1 1-1296)
2 |  | binds | dopamine receptor type 2 (D2DR) (from UniProt P14416 1-443)

Reference: PMC4203356
